Assay results from the supplement of paper PMC3334620.
Over roughly 33,000 sequences, “E-score (-0.5 to 0.5)” has its median near -0.015; the highest 2% begin near 0.3. The list shows a part of the results.

Biological target: T1, Abf1 (UniProt P14164)
T1 sequence: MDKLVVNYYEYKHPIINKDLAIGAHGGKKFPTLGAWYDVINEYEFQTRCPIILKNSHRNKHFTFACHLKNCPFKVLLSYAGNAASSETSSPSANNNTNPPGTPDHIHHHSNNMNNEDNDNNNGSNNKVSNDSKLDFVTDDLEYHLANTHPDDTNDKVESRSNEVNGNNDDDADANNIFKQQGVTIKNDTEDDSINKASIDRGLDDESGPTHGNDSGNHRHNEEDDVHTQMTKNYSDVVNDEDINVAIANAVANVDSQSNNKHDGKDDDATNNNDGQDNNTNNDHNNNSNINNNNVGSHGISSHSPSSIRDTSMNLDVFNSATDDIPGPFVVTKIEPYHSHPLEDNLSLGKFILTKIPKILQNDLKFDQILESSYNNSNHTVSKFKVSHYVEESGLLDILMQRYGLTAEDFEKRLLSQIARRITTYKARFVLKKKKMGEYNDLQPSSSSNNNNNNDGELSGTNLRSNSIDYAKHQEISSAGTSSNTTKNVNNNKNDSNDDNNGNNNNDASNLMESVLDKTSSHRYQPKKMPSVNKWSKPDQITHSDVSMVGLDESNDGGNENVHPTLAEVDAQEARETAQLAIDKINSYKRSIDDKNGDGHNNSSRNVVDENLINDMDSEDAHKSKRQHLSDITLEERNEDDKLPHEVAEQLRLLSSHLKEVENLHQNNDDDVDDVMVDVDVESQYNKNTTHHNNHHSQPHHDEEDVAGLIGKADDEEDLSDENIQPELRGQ
Assay: PBM E-score (8-mer binding enrichment) (E-score (-0.5 to 0.5)); higher = stronger / more preferred TF binding
Details: protein concentration: 200 nM; construct: GST-full length
Summary of the method: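 Detection of bound protein used fluorescent anti-GST, with scans normalised by masliner. The proteins were GST-tagged yeast transcription factors applied at about 100-200 nM to universal all-10-mer Agilent arrays made double-stranded by primer extension. Each ungapped eight-base word, pooled with its reverse complement, was scored with an E-score from the Universal PBM Analysis Suite.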

Sequence | PBM E-score
GTCCGACA | 0.0611
CGGACACC | -0.117
GTCCCATA | 0.117
CAGGAGGG | -0.248
GGCAAATA | -0.0106
CATCGGGA | 0.0994
ATGATTTA | 0.296
ACACCGAC | -0.134
CGTCCACA | 0.0748
CTCTCATC | 0.0174
CCCGGATA | -0.0473
CCGCCGCA | -0.191
CGGATCAA | -0.138
ACGGGTTC | 0.0362
ACCCTAAT | -0.122
AAGATGTA | 0.109
CATAATTA | 0.211
CTCCGAGC | -0.129
TAAGACAA | 0.12
GGCTCTAC | -0.187
ATCGACGG | 0.287
GACCCTCC | -0.204
TCAACGCA | -0.00848
GGAACACC | -0.0556
AGAACTAA | -0.0469

Sequence | PBM E-score
GCAACCAA | -0.0617
CTTCCCAC | -0.101
CCATTCGA | -0.0663
CGTAGAGC | -0.0212
GACGGTGA | 0.219
GGGCTGAA | 0.0408
ATCGATTC | 0.185
CGTTGCCA | 0.0207
CGTGGACC | 0.026
AGTTTTTC | 0.0708
AACGCAGA | -0.102
ATCGGCTG | -0.0528
CACACACG | 0.212
AGAGATAA | 0.00936
CAGCGAAC | 0.0423
GGAGGCAA | -0.107
AGGTCGAG | -0.0481
GTGTCCCA | 0.142
ATCAGGGG | -0.251
AGAAGGGC | -0.148
GGCACATA | 0.0843
GCGCAATA | -0.0465
ACGTCGCA | 0.167
ACTGGGCA | -0.0699
GTAATATA | 0.24

Sequence | PBM E-score
CGGGCACG | -0.0385
AACCTTCT | -0.0917
CCGCTAGG | -0.292
CACCACAA | 0.0473
GTATGCTA | 0.1
AATTTCAA | 0.0683
ACAAACCT | -0.0688
CTCGTAAC | 0.186
GTAAGAAC | 0.162
ATATAAGG | 0.0168
TATCACGA | 0.366
CCATCAGG | -0.303
CTCTCGTC | 0.011
CGCACATC | -0.113
GAAGTGCC | -0.0745
AAGGAACA | -0.0655
AATGGCCG | -0.0244
ATATCGTG | 0.318
ATTCGGCC | -0.0888
GTCATCCA | 0.2
GGGATTAC | -0.17
ACTTTCCA | 0.132
CATTTAGA | -0.0182
CTCAGAGA | -0.0765
TGGTTAAA | 0.013

Sequence | PBM E-score
TATGCATA | 0.0797
AGGACCCT | -0.208
CGTAAAAA | 0.279
AGACACAA | -0.00046
ATGCTTTG | -0.0227
GTGAATAA | 0.176
ACCTTTCT | 0.0863
CTTGTGCC | -0.245
ATAAATGC | 0.11
CCTCTACC | -0.146
ATAATTAT | 0.303
ATCAACCG | -0.121
CCCCAGGC | -0.329
ATTGTATC | 0.0583
ACAGAGGG | -0.00778
ACACTGCC | 0.0273
ATTGGGAC | -0.068
CTCACGGA | 0.103
AGATATAG | 0.0509
AGGTCTAG | -0.075
CATAGCAG | -0.126
GGTCGACA | -0.106
ACGCGAGT | 0.097
TGTCTGAA | -0.0515
ACGAGCTC | 0.197

Sequence | PBM E-score
GATACCAC | 0.0488
CACAAGAA | 0.0501
GGGATACC | -0.0496
ATAGTGTA | 0.0594
AGGATGGG | -0.128
AAGCTTCT | -0.0925
AGTTTTCA | 0.00364
AAGCAAAC | 0.00899
AACATTGC | -0.141
CCTCCCCA | -0.203
AGTAACCG | 0.0501
CGTTGGAA | 0.206
CAATGAAA | 0.0231
AACTCAGC | -0.0983
CGTAGGGA | 0.148
ACGGACAG | 0.0439
ACCATTCC | -0.039
AACGTACC | 0.185
AAAGAACG | 0.00276
CTTTGTAA | 0.194
AGCAAGGG | -0.0657
GAGCCGGA | -0.147
TGTCCTAA | 0.166
AAATACCA | -8e-05
GAAGCTAC | -0.119

In another format: results already given

| Sequence | PBM E-score |
| --- | --- |
| AGGATGGG | -0.128 |
| CCTCCCCA | -0.203 |
| AGTAACCG | 0.0501 |
| ACGGACAG | 0.0439 |
| AACGTACC | 0.185 |
| CTTTGTAA | 0.194 |

(further entries)

Sequence | PBM E-score
AAAGCAAT | 0.123
AACACAAC | -0.029
GGGGCGAA | -0.295
GGCTTACA | -0.00181
AAGGGACA | -0.132
TACGTATA | 0.263
GGATGGCA | -0.0267
AGAGTATC | -0.0064
ATTGTGTG | -0.137
ACCTCCGA | -0.136
ACTGTGCG | 0.0999
ACAACTCT | -0.14
ACAACTGA | -0.101
GCCCTCCA | -0.28
CCATTACG | -0.0138
ATCTACCC | -0.136
AGGTTTTG | -0.104
CCCACACG | -0.0558
CACCCCCG | -0.192
ACCGGTGA | 0.217
ATCTAAGC | -0.15
AGATCAAC | -0.0362
AGGTACCA | -0.18
CATACTAG | 0.108
ATGTTGCG | 0.106

Sequence | PBM E-score
GCCGAGTA | -0.15
CCTGTATC | 0.0189
ATCCAACA | 0.157
AAGGGAAA | 0.0168
CCGAAGCG | -0.0317
ATGGTGTG | 0.0461
GCTTTCAC | 0.0159
ACTTCCAC | -0.104
AACGGGGG | -0.0846
ACGAGGCC | 0.06
GGGCCGGA | -0.147
ACCAGACG | -0.103
ATACCAGA | 0.00095
GGTGCAAA | -0.0827
CAGTAGCA | -0.119
ACCCTCCT | -0.214
GATTGAGC | 0.0747
AATCAGGC | 0.156
GTTAAAGA | 0.167
AGCCCGTG | -0.0882
CACGATGA | 0.197
AGTATGGA | 0.0747
